# According to PMC12370185:
# The list shows a part of the results.
# System: OCT4 + histone octamer
# Assay: EMSA with sequencing
# Conditions: 10 mM Tris-Cl pH 7.5, 50 mM NaCl, 1 mM DTT, 0.25 mg/ml BSA, 2 mM MgCl2, 0.025% Nonidet P-40, 5% glycerol; 28 nM nucleosome library; 10 min on ice then 30 min …; high values mean tight binding; double strand, one strand shown
row,Sequence,binding signal (log2 relative supershift)
1,GATGGACCCTATACGCGGCCTGGGTTCTGAGAGCCTTCAGGACATGTGTCACCGCAGACGACGTTTTAACTTGTAGTGCTAGCTGCTTGTTTCAACTTGCTCCACAAAGGAAAAATAACTATTATGGTCTGGGTGGCACTGGGAAAACATCTTCCATCTTCTAGACCTAGAAGTGAGACTTTTAGCTGAAGAAATGGACTCCAAGTCCAGTGCCAGTCGGATAGTGTTCC,0.0323
2,GATGGACCCTATACGCGGCTGTGAAATAACCTGCATTAGAATTACCTGGTGGACAACACATATTAACAATGCATATTCTGAGTCCTCAAAGAACTATCAAATAAGAATCTTTGAGGTGGGGCTACACAATCTCCATCACTGGCAAGCACTCCCAGTACTTCTTATGCACATTACAATTCAAGAACCACTCATGGCTCACATAACTGCTCATGCCAGTCGGATAGTGTTCC,0.464
3,GATGGACCCTATACGCGGCCACTATTTCACGACCTTGCACATAGTTCATTTGTTTCATACATCACACACTGTTGTGTTACGTATTGACATGGCTGTCTTCACAACTAGGCTCTGAGCACCTTAAAGGCTGGGACTGACGCCAGTCACAATCTAATGCAAAGGACAGTGCTGTTATGGAAATGTTTATTGAACTGAACTGAAAATCCTGCCTGCCAGTCGGATAGTGTTCC,0.289
4,GATGGACCCTATACGCGGCGAATGGTGGCTGGACTCTATTAGGCTCCAAACTCTCATGTGCCTGAGCGCCAGCTCCCTCTCTAAACATAAGCATCTCGGGGCTGGAGGTGGGGGGAAATTTTCTGATGCATCTTTCTTTGCCATGTAATTCCTACCCCAGGATCATGCTCACATAAGTGTTCTTGGAATATGTGAGTAAGTGACTGAAAATGCCAGTCGGATAGTGTTCC,0.00049
